# The supplement of paper PMC12067093, “Discovery and optimisation of a covalent ligand for TRIM25 and its application to targeted protein ubiquitination” (Chemical Science, 2025)
# Protein sequences, listed by entry. Tags and fused reporters are not part of them. Lines headed by an entry give the natural chain unless they say otherwise; changes in a name come on top.
# UniProt Q7Z7L1: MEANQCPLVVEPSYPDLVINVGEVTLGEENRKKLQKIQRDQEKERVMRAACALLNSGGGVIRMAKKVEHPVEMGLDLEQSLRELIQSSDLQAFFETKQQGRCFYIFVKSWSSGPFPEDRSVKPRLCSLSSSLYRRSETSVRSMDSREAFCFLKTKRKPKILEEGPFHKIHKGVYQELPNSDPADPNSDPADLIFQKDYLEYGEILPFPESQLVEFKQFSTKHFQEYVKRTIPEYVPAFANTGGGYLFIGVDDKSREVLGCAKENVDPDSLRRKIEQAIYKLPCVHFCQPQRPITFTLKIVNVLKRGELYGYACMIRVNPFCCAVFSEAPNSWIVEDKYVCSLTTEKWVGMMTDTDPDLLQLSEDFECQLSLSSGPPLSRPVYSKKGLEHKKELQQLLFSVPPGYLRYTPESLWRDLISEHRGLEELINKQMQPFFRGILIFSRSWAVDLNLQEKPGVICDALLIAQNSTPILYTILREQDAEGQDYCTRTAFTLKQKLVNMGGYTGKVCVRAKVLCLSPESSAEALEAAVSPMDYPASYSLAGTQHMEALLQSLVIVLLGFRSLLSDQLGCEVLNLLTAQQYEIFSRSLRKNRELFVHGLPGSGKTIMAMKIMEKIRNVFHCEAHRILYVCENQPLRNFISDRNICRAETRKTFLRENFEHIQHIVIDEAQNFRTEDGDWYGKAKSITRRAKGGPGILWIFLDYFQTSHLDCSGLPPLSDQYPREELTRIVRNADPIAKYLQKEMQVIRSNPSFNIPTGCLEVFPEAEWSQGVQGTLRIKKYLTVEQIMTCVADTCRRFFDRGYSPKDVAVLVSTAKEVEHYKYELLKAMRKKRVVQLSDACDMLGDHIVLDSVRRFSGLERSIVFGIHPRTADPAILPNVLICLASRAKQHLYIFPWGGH
# The list shows a part of the results.
# Assays:
# Assay in all cases: probe-labelled cysteine peptide fold change vs DMSO (competition) (log2 fold change); higher = less target engagement (more negative = stronger competition)
# Conditions in all cases: THP-1, incubation time: 4 h
# [1] = target: SLFN11_Q7Z7L1_842_VVQLSDACDMLGDHIVLDSVR (UniProt Q7Z7L1)
# [2] = target: SLFN11_Q7Z7L1_842_VVQLSDACDMLGDHIVLDSVRR (UniProt Q7Z7L1)
# [3] = target: SLTM_Q9NWH9_107_DCELENQEAHEQDGNDELK (UniProt Q9NWH9)
# [4] = target: SLTM_Q9NWH9_107_DCELENQEAHEQDGNDELKDSEEFGENEEENVHSK (UniProt Q9NWH9)
# [5] = target: SLTM_Q9NWH9_107_KHEADELSGDASVEDDAFIKDCELENQEAHEQDGNDELK (UniProt Q9NWH9)
# SLTM_Q9NWH9_441_CIAHLHR = SLTM_Q9NWH9_441_CIAHLHR (UniProt Q9NWH9)
# 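Further: competitive chemoproteomic profiling in live THP-1 cells with an iodoacetamide desthiobiotin (IA-DTB) probe, comparing probe-labelled peptide intensities in compound-treated cells against DMSO-treated controls.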
structure (smiles),measurement,setting,value
CC1Cc2ccccc2N1C(=O)C1CCCN(C(=O)CCl)C1 (mixture of isomers) [TRIM25 ligand 11 (diastereomer mixture)],probe-labelled cysteine peptide fold change,[1]; 10 µM,-0.0658
same,probe-labelled cysteine peptide fold change,[1]; 50 µM,0.0793
same,probe-labelled cysteine peptide fold change,[2]; 10 µM,0.174
same,probe-labelled cysteine peptide fold change,[2]; 50 µM,0.0323
same,probe-labelled cysteine peptide fold change,[3]; 10 µM,0.104
same,probe-labelled cysteine peptide fold change,[3]; 50 µM,-0.0476
same,probe-labelled cysteine peptide fold change,[4]; 10 µM,-0.103
same,probe-labelled cysteine peptide fold change,[4]; 50 µM,-0.075
same,probe-labelled cysteine peptide fold change,[5]; 10 µM,-0.345
same,probe-labelled cysteine peptide fold change,[5]; 50 µM,-0.383
same,probe-labelled cysteine peptide fold change,SLTM_Q9NWH9_441_CIAHLHR; 10 µM,0.124
same,probe-labelled cysteine peptide fold change,SLTM_Q9NWH9_441_CIAHLHR; 50 µM,0.143
